In PubChem BioAssay AID2685 (National Center for Advancing Translational Sciences (NCATS), 2010):
Some of the results follow. Further columns of the screen follow, without active or inactive calls. Most of these compounds were active or inconclusive in the main read-out, so they are no random draw. The note in brackets gives the kind of curve behind each potency; many fits are weak.

Assay: qHTS Assay for Lipid Storage Modulators in Drosophila S3 Cells;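 for cell number change: cells counted by Cell Tracker Red CMTPX staining in the red channel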
Settings: BODIPY lipid droplet fluorescence, 18-24 h; for cell number change: measured here: cell count max response, cells fed with added oleic acid
Summary of the method: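 Drosophila S3 cells got compounds at several concentrations plus oleic acid (400 uM solution). Laser-scanning cytometry with 488 nm excitation read lipid droplets at 500-530 nm and cells at 575-640 nm. Percent activity was relative to 20 uM Triacsin C.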

[1] = measured here: lipid fluorescence (Fed channel) AC50, cells fed with added oleic acid
[2] = measured here: cell number channel AC50, cells fed with added oleic acid

O=C(N/N=C/c1cn(-c2ccccc2)nc1-c1ccc(F)cc1)c1ccc(Br)o1
cell number change: -29.6% | AC50 [1]: 0.651 µM [rising, single point]

FC(F)(F)c1cccc(-c2nc3nc(Cl)c(Cl)nc3[nH]2)c1
cell number change: -61.1% | AC50 [2]: 9.2 µM [falling, partial curve] | AC50 [1]: 8.2 µM [falling, partial curve]

COc1ccc(C(=O)NCC(=O)N2CCCC(C(F)(F)F)C2)cc1OC (stereo not drawn)
cell number change: -32.6% | AC50 [2]: 16.4 µM [falling, single point] | AC50 [1]: 14.6 µM [falling, partial curve, poor fit]

Cc1ccc(S(=O)c2ccc(C)cc2)cc1
cell number change: 10.7%

O=C(N/N=C/c1ccc2c(c1)OCO2)C(=O)N1CCCC1
cell number change: 6.54% | AC50 [1]: 0.82 µM [rising, single point]

CCCn1nc(CC(=O)O)c2ccccc2c1=O
cell number change: 28.6% | AC50 [1]: 18.4 µM [rising, single point]

CNC(=O)c1nnn(-c2ccccc2)c1C(=O)NC
cell number change: 2.17% | AC50 [1]: 0.00461 µM [falling, full curve, poor fit]

COC(=O)c1ccc(OCC(=O)Nc2ccsc2C(=O)OC)cc1
AC50 [1]: 6.51 µM [rising, single point]

COc1ccc(CCN(C)C(=O)c2ccc(OCC(=O)N3CCOCC3)c(OC)c2)cc1OC
cell number change: -9.15% | AC50 [1]: 14.6 µM [falling, single point]

CCCN(C(=O)CSc1n[nH]c(-c2ccc(OC)cc2)n1)c1c(N)n(Cc2ccccc2)c(=O)[nH]c1=O
cell number change: 75.6% | AC50 [2]: 29.1 µM [rising, single point] | AC50 [1]: 0.206 µM [rising, full curve, poor fit]

CCOC(=O)CNC(=O)CSc1nnc(NC(=O)c2ccccc2Cl)s1
cell number change: 138% | AC50 [1]: 29.1 µM [rising, single point]

Cc1cccc(NC(=O)Cn2c(O)c(N=NC(=O)c3ccncc3)c3ccccc32)c1
cell number change: 49.6% | AC50 [2]: 2.31 µM [rising, full curve]

O=c1cc(O)c2c(=O)n(C3CCCCC3)c3ccccc3c2o1
cell number change: 5.05% | AC50 [1]: 3.66 µM [falling, partial curve, poor fit]

COc1ccc(OCCCC(=O)Nc2ncn[nH]2)cc1
cell number change: 35% | AC50 [2]: 29.1 µM [rising, single point]

Cc1cccc(N2CCN(C(=S)Nc3ccc4nc(N5CCN(C)CC5)cc(C)c4c3)CC2C)c1 (stereo not drawn)
cell number change: -49% | AC50 [2]: 32.6 µM [falling, single point]

COc1ccc(S(=O)(=O)NCCc2cn3nc(C)c(C)nc3n2)cc1
cell number change: -13.5% | AC50 [1]: 4.61 µM [falling, single point]

CCCC(C)NC(=O)/C=C/c1cccc([N+](=O)[O-])c1 (stereo not drawn)
AC50 [2]: 0.731 µM [rising, single point]

CCc1c(C)sc(NC(=O)c2ccoc2C)c1C(N)=O
cell number change: -4.11%

Cc1ccccc1N=Nc1c(C)[nH]n(-c2ccccc2)c1=O
cell number change: -0.608% | AC50 [2]: 5.8 µM [falling, single point]

Cc1cc(NC(=O)c2c(Cl)cnn2C)no1
cell number change: -2.07% | AC50 [2]: 1.46 µM [falling, full curve] | AC50 [1]: 13 µM [falling, partial curve]

COc1ccc(N2C(=O)[C@@H]3[C@H](C2=O)[C@H](C(=O)c2ccc(OC(C)=O)cc2)N2N=CC=C[C@@H]32)cc1
cell number change: -3.83% | AC50 [1]: 7.31 µM [rising, partial curve, poor fit]

COC(=O)c1ccc(COc2ncnc3c(Cl)cc(Cl)cc23)o1
cell number change: 22.2% | AC50 [2]: 1.84 µM [rising, partial curve, poor fit] | AC50 [1]: 3.26 µM [rising, partial curve]

O=C1C2C3C=CC(C3)C2C(=O)N1Nc1ccccc1 (stereo not drawn)
cell number change: 7.95% | AC50 [1]: 29.1 µM [rising, single point]

COc1ccc(OC)c(C2C(C(N)=O)=C(C)Nc3nc(CCCO)nn32)c1 (stereo not drawn)
cell number change: -38.1% | AC50 [2]: 29.1 µM [falling, single point] | AC50 [1]: 8.2 µM [falling, partial curve, poor fit]

COc1cc(/C=C2\Oc3cc(O)ccc3C2=O)ccc1O
cell number change: -30.1% | AC50 [2]: 16.4 µM [falling, single point] | AC50 [1]: 23.1 µM [falling, single point]

O=C(CN1CSCC1=O)N1CCN(S(=O)(=O)c2cccc(F)c2)CC1
cell number change: 42% | AC50 [2]: 0.146 µM [rising, full curve, poor fit] | AC50 [1]: 2.31 µM [rising, full curve]

Cc1ccccc1CSCCNC(=O)c1ccccc1
cell number change: 5.94% | AC50 [1]: 29.1 µM [rising, single point]

O=C(CSc1nnc(Cc2cc(=O)[nH]c(=O)[nH]2)n1-c1ccc(Cl)cc1)NCC1CCCO1 (stereo not drawn)
cell number change: -2.8% | AC50 [1]: 0.00517 µM [falling, full curve, poor fit]

COc1ccc(-c2c3c(cc4ncn(Cc5ccccc5)c24)COC3=O)cc1
cell number change: -14.2% | AC50 [2]: 0.82 µM [falling, single point] | AC50 [1]: 9.2 µM [falling, single point]

CC1=C(C)CC(C(=O)c2ccc(C)cc2)C(C(=O)O)C1 (stereo not drawn)
cell number change: 9.62% | AC50 [1]: 29.1 µM [rising, single point]

O=C(c1ccc(N2CCN(C(=O)c3ccccc3)CC2)cc1)c1cccc(F)c1
AC50 [1]: 2.31 µM [falling, partial curve]

CCc1nnc(NC(=O)c2ccc(NC(=O)C(C)C)cc2)s1
cell number change: -28.3% | AC50 [1]: 8.2 µM [falling, partial curve, poor fit]

CCCC(=O)NC(Nc1cccc(C(F)(F)F)c1)C(Cl)(Cl)Cl (stereo not drawn)
cell number change: -28.2% | AC50 [1]: 32.6 µM [falling, partial curve]

O=C(COc1c(Cl)cc(Cl)cc1Cl)c1ccc(Cl)cc1
cell number change: 3.77% | AC50 [1]: 0.164 µM [falling, full curve, poor fit]

CCCCCCCNC(=O)C1(CC2CC(c3ccc(Cl)cc3)=NO2)CCN(C(=O)CCCCCBr)CC1 (stereo not drawn)
cell number change: 11% | AC50 [1]: 20.6 µM [falling, single point]

COc1cc2[nH]c(=O)n(CCCCCC(=O)NCCc3c[nH]c4ccccc34)c(=O)c2cc1OC
AC50 [2]: 3.26 µM [rising, single point] | AC50 [1]: 2.91 µM [rising, full curve]

O=C(CN1C(=O)COc2ccccc21)Nc1ccc(N2CCOCC2)cc1
cell number change: -12.9% | AC50 [2]: 0.13 µM [rising, full curve, poor fit] | AC50 [1]: 29.1 µM [rising, single point]

COc1cccc(NC(=O)NCCN2CCCCC2)c1
cell number change: 26% | AC50 [1]: 29.1 µM [rising, single point]

COC(=O)CN1C(=S)N(C)C(=O)C1CC(=O)Nc1ccccc1 (stereo not drawn)
cell number change: 7.25%

Cc1cc(OCCCC(=O)N2CCCCC2)cc(C)c1Cl
AC50 [2]: 4.11 µM [falling, single point]

Cc1cc2oc(=O)sc2cc1NS(=O)(=O)c1cccc2cccnc12
cell number change: 8.4% | AC50 [1]: 0.00517 µM [falling, full curve, poor fit]

CC1CCN(S(=O)(=O)c2ccc3c(c2)oc(=O)n3CC(=O)NCc2ccc3c(c2)OCO3)CC1
cell number change: -6.85% | AC50 [1]: 29.1 µM [rising, single point]

COc1ccc(OC)c(Nc2nc(N)nc(-c3cc4ccccc4o3)n2)c1
cell number change: -3.98%

CCN1CCSc2ccc(C(=O)NCc3ccccc3F)cc21
cell number change: -0.576%

Cc1ccc(NC(=O)COC(=O)CCn2c(C)csc2=O)cc1S(=O)(=O)N1CCOCC1
cell number change: 8.5%

COc1ccc(C(C(=O)NCC2CCCO2)N(C(=O)CNC(=O)c2ccco2)c2ccc(C)c(C)c2)cc1OC (stereo not drawn)
cell number change: -3.85%

CC(=O)c1ccc(NC(=O)COc2ccccc2C(=O)Nc2ccc(C)cn2)cc1
cell number change: -16.2%

CCn1nc(C(=O)OCc2cccc(S(=O)(=O)N(C)C)c2)c2ccccc2c1=O
cell number change: -32.9% | AC50 [2]: 8.2 µM [falling, partial curve, poor fit] | AC50 [1]: 7.31 µM [falling, partial curve]

O=C1C2C3C=CC(C3)C2C(=O)N1CCN1CCN(Cc2ccc([N+](=O)[O-])cc2)CC1 (stereo not drawn)
cell number change: -51.5%

CC(=O)c1cn(CC(=O)Nc2ccc(C)cc2)c2ccccc12
cell number change: 9% | AC50 [1]: 0.517 µM [rising, partial curve, poor fit]

COc1ccc(C(=O)Nc2ccccc2N2CCOCC2)cc1S(=O)(=O)N1CCCC1
cell number change: 4.48% | AC50 [2]: 2.31 µM [rising, partial curve] | AC50 [1]: 0.0259 µM [rising, full curve, poor fit]

CC(C)C(NS(=O)(=O)c1cc(C(=O)O)ccc1Cl)C(=O)O (stereo not drawn)
cell number change: -24% | AC50 [1]: 25.9 µM [falling, single point]

CCOc1ccc(CN(C)CC(=O)NCc2ccccc2Cl)cc1
cell number change: 29.9%

Cc1ccc(CN2CCCCC2C(=O)Nc2ccc(Oc3cccnc3)cc2)o1 (stereo not drawn)
cell number change: 12.4%

COc1ccc(Cc2noc(CN3CCC(c4ccncc4)CC3)n2)cc1OC
cell number change: -13.5%

N/C(Cc1ccc(Cl)cc1)=N\OC(=O)C1CCCCC1
cell number change: -16.7% | AC50 [2]: 0.00517 µM [falling, full curve, poor fit]

O=C(Cn1cc(C(F)(F)F)ccc1=O)N1CCN(S(=O)(=O)c2ccccc2)CC1
cell number change: 25.4% | AC50 [1]: 29.1 µM [rising, single point]

CCN(CC(=O)NCc1cccs1)C(=O)c1ccc(NS(=O)(=O)c2ccc(F)cc2)cc1
cell number change: 9.63% | AC50 [1]: 29.1 µM [falling, single point]

CCOC(=O)c1nnn(CC(=O)Nc2cc(Cl)ccc2C)c1C(=O)OCC
AC50 [1]: 0.146 µM [rising, full curve]
